## Cell number after 72 h of treatment

Source: doi:10.1371/journal.pone.0140310, primary screening data, rounded.

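The test systems are human melanoma cell lines, treated with a pair of drugs for 72 h and then stained and imaged. The read-out is cell count (nuclei) in % of the DMSO control; lower values mean stronger growth inhibition or killing. Concentrations were fixed for each drug; these are the higher of two levels. No replicate spread is given; individual values may be noisy.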
Only some of the drugs and lines screened are listed, without regard to their results.
A dash means that no value is listed here.

Compounds and concentrations:
BI-D1870 (1 µM): CC(C)CCN1c2nc(Nc3cc(F)c(O)c(F)c3)ncc2N(C)C(=O)C1C (centres unmarked)
vatalanib (10 µM): Clc1ccc(Nc2nnc(Cc3ccncc3)c3ccccc23)cc1
YM155 (0.002 µM): COCC[n+]1c2c(n(Cc3cnccn3)c1C)C(=O)c1ccccc1C2=O
nilotinib (1 µM): Cc1cn(-c2cc(NC(=O)c3ccc(C)c(Nc4nccc(-c5cccnc5)n4)c3)cc(C(F)(F)F)c2)cn1
SU6656 (2 µM): CN(C)S(=O)(=O)c1ccc2c(c1)/C(=C/c1cc3c([nH]1)CCCC3)C(=O)N2
FK866 (0.05 µM): O=C(/C=C/c1cccnc1)NCCCCC1CCN(C(=O)c2ccccc2)CC1
dorsomorphin (2 µM): c1cc(-c2cnn3cc(-c4ccc(OCCN5CCCCC5)cc4)cnc23)ccn1
GW9662 (10 µM): O=C(Nc1ccccc1)c1cc([N+](=O)[O-])ccc1Cl
stibogluconate (10 µM): O=C(O)[C@@H]1[O][Sb](=[O])([O][Sb]2(=[O])[O][C@H]([C@H](O)CO)[C@H](O)[C@H](C(=O)O)[O]2)[O][C@H]([C@H](O)CO)[C@@H]1O (some centres unmarked)
pazopanib (2 µM): Cc1ccc(Nc2nccc(N(C)c3ccc4c(C)n(C)nc4c3)n2)cc1S(N)(=O)=O

| # | Drugs | WM451Lu | WM3619 | COLO 829 | COLO 792 | C32 | COLO 800 |
|---|---|---|---|---|---|---|---|
| 1 | GW9662 + SU6656 | 61.3 | 49.4 | 50.3 | 60.9 | 66.2 | 18.3 |
| 2 | FK866 + BI-D1870 | 101 | 91.7 | 64.1 | 34.3 | 96.2 | 36.7 |
| 3 | nilotinib + SU6656 | 118 | 83.7 | 106 | 65.1 | 84.5 | 70.4 |
| 4 | BI-D1870 + YM155 | 39.2 | 63.8 | 79.4 | 38.7 | 87.9 | 55.0 |
| 5 | BI-D1870 + nilotinib | 90.3 | 58.1 | 100 | 84.3 | 81.6 | 63.1 |
| 6 | SU6656 + BI-D1870 | 58.7 | 54.0 | 68.5 | 71.7 | 84.7 | 39.7 |
| 7 | nilotinib + dorsomorphin | 91.1 | 89.0 | 97.2 | 77.4 | 74.6 | 115 |
| 8 | FK866 + vatalanib | 81.3 | 67.3 | 44.5 | 38.9 | 108 | 31.1 |
| 9 | stibogluconate + BI-D1870 | 94.9 | 88.7 | 106 | 95.8 | 108 | 48.2 |
| 10 | dorsomorphin + GW9662 | 73.9 | 50.7 | 64.8 | 62.9 | 56.6 | 71.1 |
| 11 | pazopanib + nilotinib | 104 | 92.3 | 134 | 96.6 | 96.8 | 59.3 |
| 12 | YM155 + nilotinib | 57.0 | 89.2 | 90.7 | 71.9 | 106 | 123 |
| 13 | dorsomorphin + vatalanib | 66.6 | 37.8 | 53.5 | 59.8 | 62.1 | 70.3 |
| 14 | vatalanib + pazopanib | 74.3 | 70.8 | 56.1 | 50.5 | 100 | 78.0 |
| 15 | vatalanib + BI-D1870 | 70.2 | 52.2 | 76.6 | 43.7 | 104 | 49.3 |
| 16 | nilotinib + FK866 | 97.2 | 87.8 | 48.6 | 37.7 | 76.5 | 22.3 |
| 17 | pazopanib + dorsomorphin | 61.5 | 52.3 | 87.6 | 64.3 | 74.4 | 63.7 |
| 18 | YM155 + pazopanib | 33.8 | 98.1 | 68.9 | 57.4 | 127 | 33.1 |
| 19 | SU6656 + pazopanib | 71.1 | 79.7 | 76.9 | 75.5 | 104 | 42.6 |
| 20 | stibogluconate + YM155 | 54.6 | 75.5 | 83.6 | 86.1 | 96.9 | 42.1 |
| 21 | vatalanib + nilotinib | 98.3 | 66.9 | 88.0 | 72.0 | 98.6 | 79.5 |
| 22 | dorsomorphin + stibogluconate | 104 | 108 | 91.9 | 119 | 98.4 | 108 |
| 23 | BI-D1870 + GW9662 | 80.3 | 51.5 | 77.9 | 68.5 | 92.0 | 34.7 |
| 24 | SU6656 + YM155 | 38.2 | 94.3 | 52.5 | 50.1 | 76.4 | 28.6 |
| 25 | YM155 + dorsomorphin | 34.6 | 64.9 | 56.9 | 46.3 | 61.5 | 44.2 |
| 26 | pazopanib + BI-D1870 | 90.8 | 54.8 | 94.8 | 80.3 | 90.1 | 59.0 |
| 27 | GW9662 + nilotinib | 96.6 | - | 96.3 | 112 | 83.1 | 96.2 |
| 28 | stibogluconate + FK866 | 109 | 94.1 | 70.8 | 49.7 | 101 | 20.7 |
| 29 | stibogluconate + nilotinib | 126 | 71.7 | 102 | 106 | 103 | 105 |
| 30 | GW9662 + FK866 | 99.7 | 81.9 | 54.2 | 65.3 | 97.3 | 33.2 |
| 31 | GW9662 + pazopanib | 82.0 | 45.9 | 42.8 | 127 | 99.6 | 86.5 |
| 32 | pazopanib + stibogluconate | 105 | 91.1 | 85.6 | 67.5 | 90.5 | 89.6 |
| 33 | dorsomorphin + SU6656 | 54.0 | 58.7 | 65.4 | 53.4 | 50.9 | 65.4 |
| 34 | stibogluconate + GW9662 | 80.8 | 79.4 | 84.3 | 98.9 | 92.8 | 64.0 |

Some entries from above, unchanged:

| Drugs | WM451Lu | WM3619 | COLO 829 | COLO 792 | C32 | COLO 800 |
|---|---|---|---|---|---|---|
| FK866 + vatalanib | 81.3 | 67.3 | 44.5 | 38.9 | 108 | 31.1 |
| stibogluconate + FK866 | 109 | 94.1 | 70.8 | 49.7 | 101 | 20.7 |
| GW9662 + pazopanib | 82.0 | 45.9 | 42.8 | 127 | 99.6 | 86.5 |